The list shows a part of the results. Single values of this set are uncertain.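 Many melting curves are irregular; where none melted, Tm was taken as 64 °C.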
Compound: CCc1cnccc1C(=O)Nc1cc2c(cc1F)NC(=O)CC2
Assay: melting temperature shift (DMSO Tm minus MBE1-treated Tm) in cellular thermal proteome profiling; higher = less thermal stabilization by MBE1 (negative = stabilized by MBE1)
Conditions: A375

Protein sequences, listed by entry. Tags and fused reporters are not part of them. Lines headed by an entry give the natural chain unless they say otherwise; changes in a name come on top.
UniProt Q08117: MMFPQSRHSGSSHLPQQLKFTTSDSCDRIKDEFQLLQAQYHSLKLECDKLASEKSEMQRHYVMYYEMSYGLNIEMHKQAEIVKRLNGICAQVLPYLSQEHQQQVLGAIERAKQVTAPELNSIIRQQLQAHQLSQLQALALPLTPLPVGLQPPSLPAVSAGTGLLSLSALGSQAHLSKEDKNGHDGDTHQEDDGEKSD
UniProt Q10469: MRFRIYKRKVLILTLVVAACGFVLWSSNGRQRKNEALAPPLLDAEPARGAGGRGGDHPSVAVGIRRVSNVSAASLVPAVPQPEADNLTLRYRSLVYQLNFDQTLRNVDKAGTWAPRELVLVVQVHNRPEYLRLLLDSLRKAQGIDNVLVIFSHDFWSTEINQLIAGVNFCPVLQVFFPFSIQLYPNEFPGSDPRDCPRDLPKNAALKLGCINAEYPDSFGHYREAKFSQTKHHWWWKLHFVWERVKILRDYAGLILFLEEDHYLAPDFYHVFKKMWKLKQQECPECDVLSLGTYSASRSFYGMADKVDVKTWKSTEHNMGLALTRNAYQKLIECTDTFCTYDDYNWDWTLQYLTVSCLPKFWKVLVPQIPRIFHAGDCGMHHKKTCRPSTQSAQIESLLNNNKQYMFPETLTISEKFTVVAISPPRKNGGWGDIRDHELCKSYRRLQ
UniProt P84022, whole entry, looked up: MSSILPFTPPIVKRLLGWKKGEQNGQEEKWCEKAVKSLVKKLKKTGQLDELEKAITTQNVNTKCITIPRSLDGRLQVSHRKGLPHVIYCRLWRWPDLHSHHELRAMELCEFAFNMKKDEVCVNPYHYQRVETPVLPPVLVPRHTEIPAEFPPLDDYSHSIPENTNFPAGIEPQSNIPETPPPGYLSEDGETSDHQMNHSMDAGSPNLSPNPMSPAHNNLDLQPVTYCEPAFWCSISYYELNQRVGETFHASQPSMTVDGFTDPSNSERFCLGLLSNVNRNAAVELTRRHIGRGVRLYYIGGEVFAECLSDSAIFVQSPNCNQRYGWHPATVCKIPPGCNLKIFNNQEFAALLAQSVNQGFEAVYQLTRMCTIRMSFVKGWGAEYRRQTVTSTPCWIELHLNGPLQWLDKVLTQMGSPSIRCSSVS
UniProt Q00013: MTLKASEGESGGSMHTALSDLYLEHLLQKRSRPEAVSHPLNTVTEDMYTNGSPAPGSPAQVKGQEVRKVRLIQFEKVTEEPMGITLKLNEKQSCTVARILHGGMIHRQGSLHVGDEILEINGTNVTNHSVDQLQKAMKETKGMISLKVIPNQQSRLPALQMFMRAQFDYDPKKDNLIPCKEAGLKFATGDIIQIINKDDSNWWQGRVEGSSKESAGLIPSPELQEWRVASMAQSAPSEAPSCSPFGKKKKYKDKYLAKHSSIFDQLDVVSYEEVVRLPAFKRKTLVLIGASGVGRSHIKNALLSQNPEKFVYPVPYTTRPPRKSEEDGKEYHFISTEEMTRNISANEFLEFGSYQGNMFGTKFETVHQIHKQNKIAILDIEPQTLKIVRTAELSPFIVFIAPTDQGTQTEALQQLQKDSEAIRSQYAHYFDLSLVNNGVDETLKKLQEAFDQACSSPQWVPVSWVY
UniProt Q13015: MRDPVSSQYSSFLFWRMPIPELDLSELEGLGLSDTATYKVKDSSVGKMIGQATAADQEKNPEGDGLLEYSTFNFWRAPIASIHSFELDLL
UniProt P78318: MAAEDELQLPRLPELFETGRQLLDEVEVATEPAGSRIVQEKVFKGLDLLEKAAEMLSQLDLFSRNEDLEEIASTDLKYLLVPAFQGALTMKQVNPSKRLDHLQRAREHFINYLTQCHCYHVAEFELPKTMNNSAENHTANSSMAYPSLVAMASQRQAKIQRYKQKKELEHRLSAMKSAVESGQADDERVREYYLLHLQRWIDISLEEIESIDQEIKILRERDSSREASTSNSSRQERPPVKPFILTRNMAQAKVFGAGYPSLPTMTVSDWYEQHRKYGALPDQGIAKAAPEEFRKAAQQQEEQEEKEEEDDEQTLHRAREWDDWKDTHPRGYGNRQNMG
UniProt Q00534, whole entry: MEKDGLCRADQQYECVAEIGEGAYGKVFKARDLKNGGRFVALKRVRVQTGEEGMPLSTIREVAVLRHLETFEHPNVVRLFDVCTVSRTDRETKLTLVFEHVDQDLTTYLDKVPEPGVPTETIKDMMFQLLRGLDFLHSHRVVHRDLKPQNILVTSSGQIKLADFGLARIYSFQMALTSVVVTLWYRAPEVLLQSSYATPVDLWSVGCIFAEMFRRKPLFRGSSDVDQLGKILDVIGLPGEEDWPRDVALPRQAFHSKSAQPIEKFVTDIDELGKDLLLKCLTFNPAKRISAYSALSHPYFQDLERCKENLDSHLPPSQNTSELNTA
UniProt Q02252: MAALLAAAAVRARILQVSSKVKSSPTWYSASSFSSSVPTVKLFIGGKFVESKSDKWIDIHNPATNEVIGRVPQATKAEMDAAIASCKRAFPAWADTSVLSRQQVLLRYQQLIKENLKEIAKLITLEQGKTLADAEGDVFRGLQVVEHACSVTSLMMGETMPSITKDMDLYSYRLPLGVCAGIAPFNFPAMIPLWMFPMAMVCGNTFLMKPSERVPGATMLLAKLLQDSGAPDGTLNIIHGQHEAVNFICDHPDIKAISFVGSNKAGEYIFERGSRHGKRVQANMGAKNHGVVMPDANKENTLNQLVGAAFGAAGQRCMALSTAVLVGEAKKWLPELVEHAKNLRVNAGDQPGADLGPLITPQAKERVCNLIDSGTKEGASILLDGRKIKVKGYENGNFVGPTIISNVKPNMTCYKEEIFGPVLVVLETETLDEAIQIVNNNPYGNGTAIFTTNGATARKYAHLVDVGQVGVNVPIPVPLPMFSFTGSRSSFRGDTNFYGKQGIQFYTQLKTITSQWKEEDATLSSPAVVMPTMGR
UniProt Q07617: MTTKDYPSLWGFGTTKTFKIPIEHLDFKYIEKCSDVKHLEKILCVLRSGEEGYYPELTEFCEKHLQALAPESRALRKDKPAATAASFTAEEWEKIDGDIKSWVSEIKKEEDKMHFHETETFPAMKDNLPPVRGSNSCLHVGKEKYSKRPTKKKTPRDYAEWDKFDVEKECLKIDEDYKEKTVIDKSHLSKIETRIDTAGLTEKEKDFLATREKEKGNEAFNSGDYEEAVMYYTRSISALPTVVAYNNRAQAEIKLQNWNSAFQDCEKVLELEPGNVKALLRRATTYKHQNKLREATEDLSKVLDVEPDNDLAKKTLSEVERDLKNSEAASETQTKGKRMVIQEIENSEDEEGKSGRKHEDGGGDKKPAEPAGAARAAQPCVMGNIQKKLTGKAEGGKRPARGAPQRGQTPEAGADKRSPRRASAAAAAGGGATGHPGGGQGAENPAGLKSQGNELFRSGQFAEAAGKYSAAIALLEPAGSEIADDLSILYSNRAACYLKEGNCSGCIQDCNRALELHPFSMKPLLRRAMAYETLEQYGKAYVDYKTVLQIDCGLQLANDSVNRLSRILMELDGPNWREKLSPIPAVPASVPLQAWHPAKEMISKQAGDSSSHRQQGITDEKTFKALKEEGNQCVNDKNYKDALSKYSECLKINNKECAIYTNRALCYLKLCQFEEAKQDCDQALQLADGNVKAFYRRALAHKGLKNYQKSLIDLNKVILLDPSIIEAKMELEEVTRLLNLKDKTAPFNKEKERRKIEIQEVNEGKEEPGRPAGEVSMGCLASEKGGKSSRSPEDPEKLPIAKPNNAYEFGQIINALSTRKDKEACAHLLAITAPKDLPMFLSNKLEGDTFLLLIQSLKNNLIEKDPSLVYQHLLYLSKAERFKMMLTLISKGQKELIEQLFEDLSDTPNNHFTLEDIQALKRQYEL
UniProt P84103: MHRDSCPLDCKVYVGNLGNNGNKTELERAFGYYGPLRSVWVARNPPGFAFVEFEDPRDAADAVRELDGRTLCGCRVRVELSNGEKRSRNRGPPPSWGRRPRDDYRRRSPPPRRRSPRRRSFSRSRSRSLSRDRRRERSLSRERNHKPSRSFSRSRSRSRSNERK
UniProt Q01433: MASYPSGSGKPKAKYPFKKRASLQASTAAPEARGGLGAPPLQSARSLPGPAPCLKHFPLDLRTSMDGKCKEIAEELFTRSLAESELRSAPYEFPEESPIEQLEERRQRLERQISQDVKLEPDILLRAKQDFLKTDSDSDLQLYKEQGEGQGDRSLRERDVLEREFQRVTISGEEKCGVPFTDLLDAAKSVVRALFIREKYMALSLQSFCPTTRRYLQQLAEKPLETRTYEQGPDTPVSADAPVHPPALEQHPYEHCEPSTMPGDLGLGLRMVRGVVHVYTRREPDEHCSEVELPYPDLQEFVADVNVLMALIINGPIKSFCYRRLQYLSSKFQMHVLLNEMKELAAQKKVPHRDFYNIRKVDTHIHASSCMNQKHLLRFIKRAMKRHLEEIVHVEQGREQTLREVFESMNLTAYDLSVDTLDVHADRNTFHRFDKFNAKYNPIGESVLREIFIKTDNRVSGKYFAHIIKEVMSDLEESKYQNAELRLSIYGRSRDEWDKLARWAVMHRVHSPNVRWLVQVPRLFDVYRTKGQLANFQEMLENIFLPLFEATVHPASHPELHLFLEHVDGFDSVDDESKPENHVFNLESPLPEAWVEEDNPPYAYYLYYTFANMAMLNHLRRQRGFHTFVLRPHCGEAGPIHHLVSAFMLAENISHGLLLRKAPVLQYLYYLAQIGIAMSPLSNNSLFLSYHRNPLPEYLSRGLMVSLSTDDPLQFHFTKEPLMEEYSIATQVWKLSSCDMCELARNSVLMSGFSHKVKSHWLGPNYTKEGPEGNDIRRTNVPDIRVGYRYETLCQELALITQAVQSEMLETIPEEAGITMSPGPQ
UniProt Q00403, whole entry: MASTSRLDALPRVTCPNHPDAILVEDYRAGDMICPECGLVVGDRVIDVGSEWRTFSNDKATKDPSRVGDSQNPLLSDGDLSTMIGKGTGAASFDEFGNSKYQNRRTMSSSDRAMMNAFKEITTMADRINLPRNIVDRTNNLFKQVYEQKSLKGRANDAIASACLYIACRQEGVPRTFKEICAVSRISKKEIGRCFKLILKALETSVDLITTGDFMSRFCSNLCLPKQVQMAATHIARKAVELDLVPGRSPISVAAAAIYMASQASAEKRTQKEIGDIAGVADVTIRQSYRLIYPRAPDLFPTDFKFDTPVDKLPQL
UniProt P78324, whole entry: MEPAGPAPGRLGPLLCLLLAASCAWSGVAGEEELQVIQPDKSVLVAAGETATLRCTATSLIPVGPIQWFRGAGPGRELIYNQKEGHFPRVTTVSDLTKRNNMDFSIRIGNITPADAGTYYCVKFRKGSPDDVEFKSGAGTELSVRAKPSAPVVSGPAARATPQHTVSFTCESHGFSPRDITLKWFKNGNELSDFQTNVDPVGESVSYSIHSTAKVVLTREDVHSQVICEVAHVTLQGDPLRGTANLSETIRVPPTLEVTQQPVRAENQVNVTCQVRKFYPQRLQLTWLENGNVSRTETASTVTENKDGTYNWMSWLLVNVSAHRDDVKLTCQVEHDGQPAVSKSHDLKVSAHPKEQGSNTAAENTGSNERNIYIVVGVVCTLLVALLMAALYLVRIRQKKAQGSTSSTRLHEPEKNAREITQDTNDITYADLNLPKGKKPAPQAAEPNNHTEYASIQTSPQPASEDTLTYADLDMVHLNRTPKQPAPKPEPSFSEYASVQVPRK
UniProt Q12860: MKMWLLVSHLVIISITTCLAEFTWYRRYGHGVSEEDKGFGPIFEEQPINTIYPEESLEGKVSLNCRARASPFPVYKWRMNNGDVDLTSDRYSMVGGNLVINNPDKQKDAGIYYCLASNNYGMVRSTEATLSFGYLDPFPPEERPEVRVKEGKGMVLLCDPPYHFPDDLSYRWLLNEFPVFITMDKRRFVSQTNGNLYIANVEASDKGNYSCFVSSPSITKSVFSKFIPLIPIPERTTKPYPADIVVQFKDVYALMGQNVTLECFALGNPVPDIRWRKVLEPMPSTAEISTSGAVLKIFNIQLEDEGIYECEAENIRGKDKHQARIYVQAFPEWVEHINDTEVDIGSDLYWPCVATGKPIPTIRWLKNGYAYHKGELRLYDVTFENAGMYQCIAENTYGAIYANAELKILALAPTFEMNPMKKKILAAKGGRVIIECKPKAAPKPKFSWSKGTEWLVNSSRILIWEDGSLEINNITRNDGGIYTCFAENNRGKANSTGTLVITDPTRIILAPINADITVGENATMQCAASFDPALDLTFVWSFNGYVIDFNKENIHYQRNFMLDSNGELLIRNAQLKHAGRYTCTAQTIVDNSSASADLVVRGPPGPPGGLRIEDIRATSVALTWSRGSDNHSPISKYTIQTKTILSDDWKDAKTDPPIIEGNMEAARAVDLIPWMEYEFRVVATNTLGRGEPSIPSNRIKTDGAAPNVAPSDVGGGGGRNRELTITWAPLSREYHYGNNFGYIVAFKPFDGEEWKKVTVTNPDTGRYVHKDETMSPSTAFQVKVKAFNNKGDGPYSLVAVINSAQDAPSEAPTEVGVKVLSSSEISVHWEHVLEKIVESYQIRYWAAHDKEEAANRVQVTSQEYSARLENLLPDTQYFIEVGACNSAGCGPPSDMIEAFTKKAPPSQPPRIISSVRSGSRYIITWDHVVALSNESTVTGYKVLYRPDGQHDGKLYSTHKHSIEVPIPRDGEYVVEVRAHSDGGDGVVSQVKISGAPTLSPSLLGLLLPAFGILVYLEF

Row | Target | melting temperature shift (MBE1 concentration: 100 nM) [°C] | melting temperature shift (MBE1 concentration: 1 uM) [°C]
1 | AES (UniProt Q08117) | 0.965 | -1.86
2 | MGAT2 (UniProt Q10469) | -0.469 | 0.208
3 | UniProt P84022 | -3.7 | -8.27
4 | MPP1 (UniProt Q00013) | -1.09 | -0.922
5 | UniProt Q13015 | -0.0384 | -0.102
6 | RNASEL (UniProt Q05823) | -1.01 | 0.00641
7 | IGBP1 (UniProt P78318) | 0.116 | 0.611
8 | PTPN11 (UniProt Q06124) | -0.22 | 0.183
9 | SOS1 (UniProt Q07889) | 0.122 | 0.134
10 | MRPS21 (UniProt P82921) | 0.611 | 1.28
11 | CDK6 (UniProt Q00534) | 0.971 | 0.837
12 | ALDH6A1 (UniProt Q02252) | -0.336 | -1.29
13 | RBPJ (UniProt Q06330) | -1.06 | -0.0672
14 | SPAG1 (UniProt Q07617) | 1.31 | -0.342
15 | UniProt Q06190 | 1.64 | -0.0122
16 | SRSF3 (UniProt P84103) | -3.44 | -1.95
17 | AMPD2 (UniProt Q01433) | -0.873 | -0.165
18 | CENPE (UniProt Q02224) | 0.336 | 1.89
19 | CHD3 (UniProt Q12873) | -0.224 | 0.141
20 | GTF2B (UniProt Q00403) | -0.991 | -0.557
21 | UniProt P78324 | -2.92 | -0.307
22 | UniProt Q12860 | -1.42 | 0.401

Two records picked at random from those above, as already listed:
Row | Target | melting temperature shift (MBE1 concentration: 100 nM) [°C] | melting temperature shift (MBE1 concentration: 1 uM) [°C]
7 | IGBP1 (UniProt P78318) | 0.116 | 0.611
13 | RBPJ (UniProt Q06330) | -1.06 | -0.0672

From the supplement of paper PMC12595434, “Development of retinoid nuclear receptor pathway antagonists through targeting aldehyde dehydrogenase 1A3” (iScience, 2025)
